Data as given in patent US20140140998A1.
No constants are given. Whether binding was seen depends on the method and setting. Binding seen in cells or lysates may run through a third protein. Some binding calls cover weakened binding; strength is not graded here.

Sequences of proteins named here, by UniProt entry; tags and fusion partners are left off. Residues count along the entry.
UniProt Q09472, residues 2-2414: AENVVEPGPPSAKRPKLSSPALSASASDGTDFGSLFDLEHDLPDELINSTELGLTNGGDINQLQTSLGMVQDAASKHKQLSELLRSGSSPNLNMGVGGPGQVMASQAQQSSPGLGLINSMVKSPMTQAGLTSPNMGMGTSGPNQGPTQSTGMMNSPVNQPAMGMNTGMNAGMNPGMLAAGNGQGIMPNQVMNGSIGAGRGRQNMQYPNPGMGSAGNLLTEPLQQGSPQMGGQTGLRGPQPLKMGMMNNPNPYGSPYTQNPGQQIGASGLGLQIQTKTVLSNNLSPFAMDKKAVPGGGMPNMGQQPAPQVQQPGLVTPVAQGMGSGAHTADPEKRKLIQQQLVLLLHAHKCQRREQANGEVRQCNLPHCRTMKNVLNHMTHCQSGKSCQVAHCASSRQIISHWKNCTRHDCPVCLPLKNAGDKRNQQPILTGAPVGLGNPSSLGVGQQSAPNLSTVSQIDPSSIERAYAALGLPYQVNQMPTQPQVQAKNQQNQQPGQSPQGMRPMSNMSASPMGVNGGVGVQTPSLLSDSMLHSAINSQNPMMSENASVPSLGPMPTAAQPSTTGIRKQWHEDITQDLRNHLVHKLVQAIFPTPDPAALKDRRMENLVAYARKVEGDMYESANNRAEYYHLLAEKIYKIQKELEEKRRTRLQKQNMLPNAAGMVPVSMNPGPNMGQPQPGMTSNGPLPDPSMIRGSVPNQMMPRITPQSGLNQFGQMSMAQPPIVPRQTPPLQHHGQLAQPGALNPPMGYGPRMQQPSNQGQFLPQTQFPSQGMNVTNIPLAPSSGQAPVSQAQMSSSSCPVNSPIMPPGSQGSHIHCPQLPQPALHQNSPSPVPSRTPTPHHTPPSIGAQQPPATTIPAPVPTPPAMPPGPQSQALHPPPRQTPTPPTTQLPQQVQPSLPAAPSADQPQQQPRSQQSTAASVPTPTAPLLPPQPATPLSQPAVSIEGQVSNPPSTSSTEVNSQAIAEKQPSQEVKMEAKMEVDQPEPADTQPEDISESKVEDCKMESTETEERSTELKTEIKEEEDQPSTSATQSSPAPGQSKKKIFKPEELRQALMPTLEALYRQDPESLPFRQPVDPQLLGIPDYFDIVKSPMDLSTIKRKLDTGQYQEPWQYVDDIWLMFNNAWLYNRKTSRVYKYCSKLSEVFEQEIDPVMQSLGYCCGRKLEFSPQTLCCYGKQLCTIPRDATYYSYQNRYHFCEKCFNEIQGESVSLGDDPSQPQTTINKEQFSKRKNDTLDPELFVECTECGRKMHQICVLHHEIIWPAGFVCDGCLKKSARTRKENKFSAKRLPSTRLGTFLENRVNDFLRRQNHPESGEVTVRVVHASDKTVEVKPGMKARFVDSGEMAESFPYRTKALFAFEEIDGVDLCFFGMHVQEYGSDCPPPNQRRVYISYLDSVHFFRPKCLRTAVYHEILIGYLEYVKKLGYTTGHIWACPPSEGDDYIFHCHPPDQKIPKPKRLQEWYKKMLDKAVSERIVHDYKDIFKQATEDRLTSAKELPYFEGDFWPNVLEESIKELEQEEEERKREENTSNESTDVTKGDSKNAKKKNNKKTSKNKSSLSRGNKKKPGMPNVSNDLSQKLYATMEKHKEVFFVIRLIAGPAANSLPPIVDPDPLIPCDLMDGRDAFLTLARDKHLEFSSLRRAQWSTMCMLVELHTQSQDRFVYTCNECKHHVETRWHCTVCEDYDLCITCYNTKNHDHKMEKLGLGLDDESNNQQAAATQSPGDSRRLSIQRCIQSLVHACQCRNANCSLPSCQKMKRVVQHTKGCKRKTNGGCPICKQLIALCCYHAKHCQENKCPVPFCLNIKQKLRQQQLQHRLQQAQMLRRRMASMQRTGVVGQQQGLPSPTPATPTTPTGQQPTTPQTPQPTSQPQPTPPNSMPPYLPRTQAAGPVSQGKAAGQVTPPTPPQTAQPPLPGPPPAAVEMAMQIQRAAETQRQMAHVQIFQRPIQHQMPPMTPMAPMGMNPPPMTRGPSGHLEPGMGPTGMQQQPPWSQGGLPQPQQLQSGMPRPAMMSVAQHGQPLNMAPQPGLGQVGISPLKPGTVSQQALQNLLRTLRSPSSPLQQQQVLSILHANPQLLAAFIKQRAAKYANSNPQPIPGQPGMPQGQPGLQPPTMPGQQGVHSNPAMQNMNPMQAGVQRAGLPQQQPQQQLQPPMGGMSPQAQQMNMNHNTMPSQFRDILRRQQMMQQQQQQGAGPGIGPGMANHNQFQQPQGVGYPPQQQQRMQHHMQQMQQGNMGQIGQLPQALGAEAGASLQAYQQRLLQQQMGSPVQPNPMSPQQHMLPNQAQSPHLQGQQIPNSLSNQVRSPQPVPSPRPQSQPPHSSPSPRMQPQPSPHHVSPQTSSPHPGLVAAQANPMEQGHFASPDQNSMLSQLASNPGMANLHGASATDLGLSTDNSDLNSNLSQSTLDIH

Legend:
[1] = target: T1, TβRI intracellular domain fragment (TβRI ICD), about 34 kDa (human) (UniProt P36897); test: co-immunoprecipitation from PC-3U cells
T1 sequence: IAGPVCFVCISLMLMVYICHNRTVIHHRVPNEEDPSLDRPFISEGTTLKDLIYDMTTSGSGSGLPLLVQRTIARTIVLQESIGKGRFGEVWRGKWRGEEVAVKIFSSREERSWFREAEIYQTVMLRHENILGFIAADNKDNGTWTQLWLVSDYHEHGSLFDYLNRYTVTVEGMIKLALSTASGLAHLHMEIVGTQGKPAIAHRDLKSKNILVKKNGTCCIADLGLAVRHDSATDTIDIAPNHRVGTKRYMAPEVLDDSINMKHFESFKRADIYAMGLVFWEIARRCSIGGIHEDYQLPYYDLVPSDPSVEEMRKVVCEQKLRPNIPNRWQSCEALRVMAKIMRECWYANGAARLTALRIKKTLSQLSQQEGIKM

[2] = target: T2, type I receptor of transforming growth factor beta (TβRI), endogenous, full length (human) (UniProt P36897); test: co-immunoprecipitation from PC-3U cells (IP V22, blot anti-p300)
T2 sequence: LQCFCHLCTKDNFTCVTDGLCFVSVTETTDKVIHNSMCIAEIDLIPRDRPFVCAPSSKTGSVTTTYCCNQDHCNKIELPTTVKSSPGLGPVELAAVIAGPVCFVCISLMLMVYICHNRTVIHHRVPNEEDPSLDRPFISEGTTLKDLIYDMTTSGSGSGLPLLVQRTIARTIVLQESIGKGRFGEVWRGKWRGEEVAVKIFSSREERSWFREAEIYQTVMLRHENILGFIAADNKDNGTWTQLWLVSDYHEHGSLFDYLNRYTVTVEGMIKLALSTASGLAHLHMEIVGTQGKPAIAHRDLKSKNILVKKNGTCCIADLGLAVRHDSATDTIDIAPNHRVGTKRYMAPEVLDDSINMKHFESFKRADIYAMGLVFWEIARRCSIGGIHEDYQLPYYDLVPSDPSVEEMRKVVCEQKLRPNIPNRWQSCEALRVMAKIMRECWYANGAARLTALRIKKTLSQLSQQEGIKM

“p300, endogenous (from UniProt Q09472 2-2414) (enzyme)” was tested, and the binding [1] was “binds” and the binding [2] was “binds”.
